Measured values taken from publication PMC7054742.
No constants are given. Whether binding was seen depends on the method and setting. In cells and extracts the contact can be indirect. A result given as binding can be weak or reduced; the word gives no strength.

Legend:
[1] = target: 3xFLAG-tagged full-length NKRF (784 amino acids) (human); test: co-IP; U-2 OS cells transiently transfected with N-terminally FLAG-tagged short, middle or full-length NKRF; cell extracts immunoprecipitated with anti-FLAG antibody (IgG as negative control); blot for NKRF and XRN2
[2] = target: NF-κB repressing factor (NKRF), endogenous full-length protein (human (endogenous in U-2 OS)); test: co-IP; endogenous NKRF immunoprecipitated with anti-NKRF antibody (control IgG) from U-2 OS nuclear lysate in L200 buffer (50 mM Tris-HCl pH 7.4, 1% Triton X-100, 150 mM NaCl), 2 h at 4°C; cells untreated or treated with CX-5461, lysates untreated or treated with RNase or DNase; blot for XRN2

B1: 5′–3′ exonuclease XRN2 (enzyme, UniProt Q9H0D6 1-950)
chain: MGVPAFFRWLSRKYPSIIVNCVEEKPKECNGVKIPVDASKPNPNDVEFDNLYLDMNGIIHPCTHPEDKPAPKNEDEMMVAIFEYIDRLFSIVRPRRLLYMAIDGVAPRAKMNQQRSRRFRASKEGMEAAVEKQRVREEILAKGGFLPPEEIKERFDSNCITPGTEFMDNLAKCLRYYIADRLNNDPGWKNLTVILSDASAPGEGEHKIMDYIRRQRAQPNHDPNTHHCLCGADADLIMLGLATHEPNFTIIREEFKPNKPKPCGLCNQFGHEVKDCEGLPREKKGKHDELADSLPCAEGEFIFLRLNVLREYLERELTMASLPFTFDVERSIDDWVFMCFFVGNDFLPHLPSLEIRENAIDRLVNIYKNVVHKTGGYLTESGYVNLQRVQMIMLAVGEVEDSIFKKRKDDEDSFRRRQKEKRKRMKRDQPAFTPSGILTPHALGSRNSPGSQVASNPRQAAYEMRMQNNSSPSISPNTSFTSDGSPSPLGGIKRKAEDSDSEPEPEDNVRLWEAGWKQRYYKNKFDVDAADEKFRRKVVQSYVEGLCWVLRYYYQGCASWKWYYPFHYAPFASDFEGIADMPSDFEKGTKPFKPLEQLMGVFPAASGNFLPPSWRKLMSDPDSSIIDFYPEDFAIDLNGKKYAWQGVALLPFVDERRLRAALEEVYPDLTPEETRRNSLGGDVLFVGKHHPLHDFILELYQTGSTEPVEVPPELCHGIQGKFSLDEEAILPDQIVCSPVPMLRDLTQNTVVSINFKDPQFAEDYIFKAVMLPGARKPAAVLKPSDWEKSSNGRQWKPQLGFNRDRRPVHLDQAAFRTLGHVMPRGSGTGIYSNAAPPPVTYQGNLYRPLLRGQAQIPKLMSNMRPQDSWRGPPPLFQQQRFDRGVGAEPLLPWNRMLQTQNAAFQPNQYQMLAGPGGYPPRRDDRGGRQGYPREGRKYPLPPPSGRYNWN
B1 was tested, and the binding [1] was “binds” and the binding [2] was “binds”.
